Results published in the supplement of paper PMC8728848.
This is one part of the list.

How the values were obtained:
Assay in all cases: glycan array binding signal (z-score within array); higher = stronger binding
Conditions in all cases: glycan notation: IUPAC condensed, linker removed
[1] = target: Man(a1-3)[Man(a1-6)]Man(b1-4)GlcNAc(b1-4)GlcNAc
How it was run: (§1)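 Glycan array data came from 3228 arrays in the Consortium for Functional Glycomics database, and only arrays with an available protein sequence were kept. Glycan names were put into IUPAC-condensed notation, and columns mapping to the same glycan were averaged. The binding signal is a within-array Z-score, averaged across arrays of one protein sequence run at different concentrations or buffers and across linkers. A negative Z-score can be read as non-binding.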

Man(b1-4)GlcNAc = target: Man(b1-4)GlcNAc
How it was run: as §1

Neu5Ac(a2-3)Gal = target: Neu5Ac(a2-3)Gal
How it was run: as §1

[2] = target: Neu5Ac(a2-3)Gal(b1-3)GalNAc
How it was run: as §1

[3] = target: Neu5Ac(a2-3)Gal(b1-3)GalNAc(b1-3)Gal(a1-4)Gal(b1-4)Glc
How it was run: as §1

[4] = target: Neu5Ac(a2-3)Gal(b1-3)GalNAc(b1-3)Gal(b1-4)GlcNAc
How it was run: as §1

[5] = target: Neu5Ac(a2-3)Gal(b1-3)GalNAc(b1-4)[Neu5Ac(a2-3)]Gal(b1-4)Glc
How it was run: as §1

[6] = target: Neu5Ac(a2-3)Gal(b1-3)GalNAc6S
How it was run: as §1

[7] = target: Neu5Ac(a2-3)Gal(b1-3)GlcNAc
How it was run: as §1

[8] = target: Neu5Ac(a2-3)Gal(b1-3)GlcNAc(b1-3)Gal(b1-3)GlcNAc
How it was run: as §1

[9] = target: Neu5Ac(a2-3)Gal(b1-3)GlcNAc6S
How it was run: as §1

[10] = target: Neu5Ac(a2-3)Gal(b1-3)[Fuc(a1-4)]GlcNAc
How it was run: as §1

[11] = target: Neu5Ac(a2-3)Gal(b1-3)[Fuc(a1-4)]GlcNAc(b1-3)Gal(b1-4)[Fuc(a1-3)]GlcNAc
How it was run: as §1

[12] = target: Neu5Ac(a2-3)Gal(b1-3)[Neu5Ac(a2-3)Gal(b1-4)]GlcNAc
How it was run: as §1

[13] = target: Neu5Ac(a2-3)Gal(b1-3)[Neu5Ac(a2-6)]GalNAc
How it was run: as §1

Neu5Ac(a2-3)Gal(b1-4)Glc = target: Neu5Ac(a2-3)Gal(b1-4)Glc
How it was run: as §1

[14] = target: Neu5Ac(a2-3)Gal(b1-4)GlcNAc
How it was run: as §1

[15] = target: Neu5Ac(a2-3)Gal(b1-4)GlcNAc(b1-2)Man(a1-3)[Neu5Ac(a2-3)Gal(b1-4)GlcNAc(b1-2)Man(a1-6)]Man(b1-4)GlcNAc(b1-4)GlcNAc
How it was run: as §1

[16] = target: Neu5Ac(a2-3)Gal(b1-4)GlcNAc(b1-3)Gal(b1-3)GlcNAc
How it was run: as §1

[17] = target: Neu5Ac(a2-3)Gal(b1-4)GlcNAc(b1-3)Gal(b1-4)GlcNAc
How it was run: as §1

[18] = target: Neu5Ac(a2-3)Gal(b1-4)GlcNAc(b1-3)Gal(b1-4)GlcNAc(b1-3)Gal(b1-4)GlcNAc
How it was run: as §1

[19] = target: Neu5Ac(a2-3)Gal(b1-4)GlcNAc(b1-3)Gal(b1-4)[Fuc(a1-3)]GlcNAc
How it was run: as §1

[20] = target: Neu5Ac(a2-3)Gal(b1-4)GlcNAc(b1-6)[Gal(b1-3)]GalNAc
How it was run: as §1

[21] = target: Neu5Ac(a2-3)Gal(b1-4)GlcNAc6S
How it was run: as §1

[22] = target: Neu5Ac(a2-3)Gal(b1-4)[Fuc(a1-3)]GlcNAc
How it was run: as §1

[23] = target: Neu5Ac(a2-3)Gal(b1-4)[Fuc(a1-3)]GlcNAc(b1-3)Gal
How it was run: as §1

[24] = target: Neu5Ac(a2-3)Gal(b1-4)[Fuc(a1-3)]GlcNAc(b1-3)Gal(b1-4)GlcNAc
How it was run: as §1

[25] = target: Neu5Ac(a2-3)Gal(b1-4)[Fuc(a1-3)]GlcNAc(b1-3)Gal(b1-4)[Fuc(a1-3)]GlcNAc(b1-3)Gal(b1-4)[Fuc(a1-3)]GlcNAc
How it was run: as §1

[26] = target: Neu5Ac(a2-3)Gal(b1-4)[Fuc(a1-3)]GlcNAc6S
How it was run: as §1

[27] = target: Neu5Ac(a2-3)Gal6S(b1-4)GlcNAc
How it was run: as §1

[28] = target: Neu5Ac(a2-3)Gal6S(b1-4)[Fuc(a1-3)]GlcNAc
How it was run: as §1

Neu5Ac(a2-3)GalNAc = target: Neu5Ac(a2-3)GalNAc
How it was run: as §1

[29] = target: Neu5Ac(a2-3)GalNAc(b1-4)GlcNAc
How it was run: as §1

[30] = target: Neu5Ac(a2-3)[GalNAc(b1-4)]Gal(b1-4)Glc
How it was run: as §1

[31] = target: Neu5Ac(a2-3)[GalNAc(b1-4)]Gal(b1-4)GlcNAc
How it was run: as §1

[32] = target: Neu5Ac(a2-3)[Neu5Ac(a2-6)]GalNAc
How it was run: as §1

Neu5Ac(a2-6)Gal = target: Neu5Ac(a2-6)Gal
How it was run: as §1

Neu5Ac(a2-6)Gal(b1-4)Glc = target: Neu5Ac(a2-6)Gal(b1-4)Glc
How it was run: as §1

[33] = target: Neu5Ac(a2-6)Gal(b1-4)GlcNAc
How it was run: as §1

[34] = target: Neu5Ac(a2-6)Gal(b1-4)GlcNAc(b1-3)Gal(b1-4)GlcNAc
How it was run: as §1

[35] = target: Neu5Ac(a2-6)Gal(b1-4)GlcNAc(b1-3)Gal(b1-4)[Fuc(a1-3)]GlcNAc(b1-3)Gal(b1-4)[Fuc(a1-3)]GlcNAc
How it was run: as §1

[36] = target: Neu5Ac(a2-6)Gal(b1-4)GlcNAc6S
How it was run: as §1

Neu5Ac(a2-6)GalNAc = target: Neu5Ac(a2-6)GalNAc
How it was run: as §1

[37] = target: Neu5Ac(a2-6)GalNAc(b1-4)GlcNAc
How it was run: as §1

Neu5Ac(a2-8)Neu5Ac = target: Neu5Ac(a2-8)Neu5Ac
How it was run: as §1

[38] = target: Neu5Ac(a2-8)Neu5Ac(a2-3)Gal(b1-4)Glc
How it was run: as §1

[39] = target: Neu5Ac(a2-8)Neu5Ac(a2-3)[GalNAc(b1-4)]Gal(b1-4)Glc
How it was run: as §1

[40] = target: Neu5Ac(a2-8)Neu5Ac(a2-8)Neu5Ac
How it was run: as §1

[41] = target: Neu5Ac(a2-8)Neu5Ac(a2-8)Neu5Ac(a2-3)Gal(b1-4)Glc
How it was run: as §1

[42] = target: Neu5Ac(a2-8)Neu5Ac(a2-8)Neu5Ac(a2-3)[GalNAc(b1-4)]Gal(b1-4)Glc
How it was run: as §1

[43] = target: Neu5Ac(a2-8)Neu5Ac(a2-8)Neu5Ac(a2-8)Neu5Ac(a2-3)[GalNAc(b1-4)]Gal(b1-4)Glc
How it was run: as §1

Neu5Ac(b1-6)GalNAc = target: Neu5Ac(b1-6)GalNAc
How it was run: as §1

[44] = target: Neu5Ac(b2-6)Gal(b1-4)GlcNAc
How it was run: as §1

[45] = target: Neu5Ac9Ac(a2-6)Gal(b1-4)GlcNAc
How it was run: as §1

[46] = target: Neu5Gc(a2-3)Gal(b1-3)GlcNAc
How it was run: as §1

[47] = target: Neu5Gc(a2-3)Gal(b1-3)[Fuc(a1-4)]GlcNAc
How it was run: as §1

Neu5Gc(a2-3)Gal(b1-4)Glc = target: Neu5Gc(a2-3)Gal(b1-4)Glc
How it was run: as §1

[48] = target: Neu5Gc(a2-3)Gal(b1-4)GlcNAc
How it was run: as §1

[49] = target: Neu5Gc(a2-3)Gal(b1-4)[Fuc(a1-3)]GlcNAc
How it was run: as §1

[50] = target: Neu5Gc(a2-6)Gal(b1-4)GlcNAc
How it was run: as §1

Neu5Gc(a2-6)GalNAc = target: Neu5Gc(a2-6)GalNAc
How it was run: as §1

B1: CTMLA2 (Anopheles gambiae), Q7Q7F8 (protein)
chain: MNLMITILIAVITVVRGDLSVPKTVDDILQQNPCLCPCKPFEEKEYFIPISRTSDWFGAVAYCHSVGMELAEVLNEDEARAMGEVIAEEESDSDDEFYWIGANDLGVQGTYRWALAGRPVLYSQWAAGEPNHARGENGQQPAERCVAVAMDKYEWNDFQCTQQKPFICQQFRKH
With B1 the “glycan array binding signal (z-score)” value [1] was -0.199, the “glycan array binding signal (z-score)” value (Man(b1-4)GlcNAc) was -0.189 and the “glycan array binding signal (z-score)” value (Neu5Ac(a2-3)Gal) was -0.235. For the same binder, the “glycan array binding signal (z-score)” value [2] was -0.51, the “glycan array binding signal (z-score)” value [3] was -0.274 and the “glycan array binding signal (z-score)” value [4] was 0.102. The “glycan array binding signal (z-score)” value [5] was -0.414, the “glycan array binding signal (z-score)” value [6] was -0.357 and the “glycan array binding signal (z-score)” value [7] was -0.318. The “glycan array binding signal (z-score)” value [8] was -0.281, the “glycan array binding signal (z-score)” value [9] was -0.551 and the “glycan array binding signal (z-score)” value [10] was -0.437. For the same binder, the “glycan array binding signal (z-score)” value [11] was -0.129, the “glycan array binding signal (z-score)” value [12] was -0.137 and the “glycan array binding signal (z-score)” value [13] was 0.141. The “glycan array binding signal (z-score)” value (Neu5Ac(a2-3)Gal(b1-4)Glc) was -0.195, the “glycan array binding signal (z-score)” value [14] was -0.377 and the “glycan array binding signal (z-score)” value [15] was 0.076. For the same binder, the “glycan array binding signal (z-score)” value [16] was -0.485, the “glycan array binding signal (z-score)” value [17] was 0.645 and the “glycan array binding signal (z-score)” value [18] was -0.656. For the same binder, the “glycan array binding signal (z-score)” value [19] was 0.177, the “glycan array binding signal (z-score)” value [20] was -0.355 and the “glycan array binding signal (z-score)” value [21] was -0.26. The “glycan array binding signal (z-score)” value [22] was -0.478, the “glycan array binding signal (z-score)” value [23] was -0.414 and the “glycan array binding signal (z-score)” value [24] was 0.213. For the same binder, the “glycan array binding signal (z-score)” value [25] was -0.45, the “glycan array binding signal (z-score)” value [26] was -0.172 and the “glycan array binding signal (z-score)” value [27] was 0.238. The “glycan array binding signal (z-score)” value [28] was -0.274, the “glycan array binding signal (z-score)” value (Neu5Ac(a2-3)GalNAc) was 0.333 and the “glycan array binding signal (z-score)” value [29] was 0.579. The “glycan array binding signal (z-score)” value [30] was -0.435, the “glycan array binding signal (z-score)” value [31] was -0.181 and the “glycan array binding signal (z-score)” value [32] was 0.159. For the same binder, the “glycan array binding signal (z-score)” value (Neu5Ac(a2-6)Gal) was -0.594, the “glycan array binding signal (z-score)” value (Neu5Ac(a2-6)Gal(b1-4)Glc) was -0.539 and the “glycan array binding signal (z-score)” value [33] was -0.324. For the same binder, the “glycan array binding signal (z-score)” value [34] was -0.452, the “glycan array binding signal (z-score)” value [35] was -0.37 and the “glycan array binding signal (z-score)” value [36] was -0.415. For the same binder, the “glycan array binding signal (z-score)” value (Neu5Ac(a2-6)GalNAc) was -0.299, the “glycan array binding signal (z-score)” value [37] was -0.284 and the “glycan array binding signal (z-score)” value (Neu5Ac(a2-8)Neu5Ac) was -0.246. The “glycan array binding signal (z-score)” value [38] was -0.35, the “glycan array binding signal (z-score)” value [39] was -0.359 and the “glycan array binding signal (z-score)” value [40] was -0.28. The “glycan array binding signal (z-score)” value [41] was -0.285, the “glycan array binding signal (z-score)” value [42] was -0.353 and the “glycan array binding signal (z-score)” value [43] was 0.117. For the same binder, the “glycan array binding signal (z-score)” value (Neu5Ac(b1-6)GalNAc) was 0.126, the “glycan array binding signal (z-score)” value [44] was -0.492 and the “glycan array binding signal (z-score)” value [45] was 0.488. The “glycan array binding signal (z-score)” value [46] was -0.162, the “glycan array binding signal (z-score)” value [47] was -0.268 and the “glycan array binding signal (z-score)” value (Neu5Gc(a2-3)Gal(b1-4)Glc) was -0.485. The “glycan array binding signal (z-score)” value [48] was -0.221, the “glycan array binding signal (z-score)” value [49] was -0.437 and the “glycan array binding signal (z-score)” value [50] was -0.479. The “glycan array binding signal (z-score)” value (Neu5Gc(a2-6)GalNAc) was -0.317.
